Values from PubChem BioAssay AID1259294 (Sanger Institute, 2017).
Purpose: 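Retest synthetic lethal gene and drug pairs with separate siRNA duplexes in CL40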 (follow-up of hits). Cells: human CL40 colorectal cancer cells. Knock-down reagent: single siRNA against human genes. Treatment: anchor drug or DMSO vehicle added to knock-down cells: BYL719 1 µM, cetuximab 5 µg/ml, trametinib 10 nM. Measurement: 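Viability averaged across replicates, each scaled to control pool 2 (non-targeting), under vehicle or anchor drug; synergy score compares observed combined effect with expected effect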. Reading the numbers: synergy score with trametinib and synergy score with BYL719 and synergy score with cetuximab: higher = stronger synergistic (synthetic lethal) killing. Call rule: 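Called synergy with a drug when the synergy score is above 0.10 for at least one anchor drug, otherwise no synergy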. Meaning of the calls: active = synergy with a drug; inactive = no synergy.
The whole screen tested 160 reagents; below is a part drawn at random. 43 of them (27%) count as active. 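Calls mean synergy with any one drug, not lethality of knock-down alone; BYL719 1 µM, cetuximab 5 µg/ml, trametinib 10 nM barely cut viability.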 Entries without a mark were called inactive. The numbers tell different reagents against one gene apart. Further read-outs or replicates are left out here. The record does not give: the amount of reagent, the time to read-out.

| gene | siRNA no. | synergy score with trametinib | synergy score with BYL719 | synergy score with cetuximab |
| --- | --- | --- | --- | --- |
| PINK1 | 1 | -0.113 | -0.354 | -0.218 |
| PINK1 | 2 | 0.214 (active) | -0.11 | 0.0357 |
| PINK1 | 3 | 0.055 | -0.139 | 0.0203 |
| PINK1 | 4 | 0.0959 | -0.163 | -0.13 |
| AK2 | 1 | -0.0819 | -0.444 | -0.0849 |
| AK2 | 2 | 0.218 (active) | -0.222 | -0.106 |
| AK2 | 3 | 0.0232 | -0.298 | -0.106 |
| AK2 | 4 | 0.169 (active) | -0.194 | -0.218 |
| MAP3K8 | 1 | 0.0334 | -0.077 | -0.106 |
| MAP3K8 | 2 | -0.0156 | -0.156 | -0.0342 |
| MAP3K8 | 3 | 0.0036 | -0.215 | -0.0754 |
| MAP3K8 | 4 | 0.0934 | -0.0594 | -0.249 |
| KCNH8 | 1 | 0.0317 | -0.148 | -0.149 |
| KCNH8 | 2 | 0.104 (active) | -0.151 | -0.299 |
| KCNH8 | 3 | -0.12 | -0.306 | -0.106 |
| KCNH8 | 4 | 0.0765 | -0.261 | -0.097 |
| SYK | 1 | 0.0115 | -0.0391 | -0.176 |
| SYK | 2 | 0.0404 | -0.312 | -0.0546 |
| SYK | 3 | 0.121 (active) | 0.0686 | -0.0578 |
| SYK | 4 | -0.0316 | -0.252 | -0.105 |
| CHD4 | 1 | -0.0445 | -0.0878 | -0.139 |
| CHD4 | 2 | -0.00923 | -0.297 | -0.135 |
| CHD4 | 3 | -0.0213 | 0 | 0.0969 |
| CHD4 | 4 | -0.00473 | -0.277 | 0.0236 |
| NR2F2 | 1 | 0.0997 | -0.0561 | -0.0456 |
| NR2F2 | 2 | -0.0391 | -0.292 | -0.23 |
| NR2F2 | 3 | -0.0475 | -0.269 | -0.159 |
| NR2F2 | 4 | 0.124 (active) | 0.077 | -0.179 |
| NLK | 1 | 0.00601 | -0.111 | -0.184 |
| NLK | 2 | 0.159 (active) | -0.02 | 0.00575 |
| NLK | 3 | 0.0278 | -0.292 | 0.0849 |
| NLK | 4 | 0.00133 | -0.0755 | -0.125 |
| COASY | 1 | 0.0176 | -0.184 | -0.0126 |
| COASY | 2 | 0.0395 | 0.0381 | -0.189 |
| COASY | 3 | 0.0126 | -0.0337 | 0.0481 |
| COASY | 4 | 0.086 | 0.0453 | -0.0626 |
| GUCY2D | 1 | 0.00173 | -0.0505 | -0.0899 |
| GUCY2D | 2 | 0.133 (active) | 0.0549 | -0.0345 |
| GUCY2D | 3 | -0.0319 | -0.0481 | -0.0565 |
| GUCY2D | 4 | 0.132 (active) | -0.313 | -0.068 |
| HUNK | 1 | 0.00883 | -0.0126 | -0.072 |
| HUNK | 2 | 0.0508 | -0.062 | -0.0991 |
| HUNK | 3 | 0.128 (active) | -0.0309 | -0.17 |
| HUNK | 4 | 0.0834 | -0.106 | -0.152 |
| ACVR1 | 1 | -0.0337 | -0.235 | -0.106 |
| ACVR1 | 2 | -0.0159 | -0.237 | -0.106 |
| ACVR1 | 3 | -0.0119 | -0.277 | -0.106 |
| ACVR1 | 4 | 0.0678 | -0.243 | -0.106 |
| MAPKAPK2 | 1 | 0.055 | 0.0278 | -0.0475 |
| MAPKAPK2 | 2 | -0.21 | -0.404 | -0.0677 |
| MAPKAPK2 | 3 | 0.00389 | -0.256 | -0.00254 |
| MAPKAPK2 | 4 | -0.0746 | -0.272 | -0.139 |

Look-ups from the list:
GUCY2D #1, synergy score with trametinib: 0.00173
Value of KCNH8 #2 under “synergy score with trametinib”: 0.104 (active)
For “synergy score with cetuximab”, AK2 #3 has -0.106
COASY #1, synergy score with cetuximab = -0.0126
Under “synergy score with trametinib”, COASY #4 reads 0.086
Entry for AK2 #2 under “synergy score with BYL719”: -0.222 (active)
